# Literature values in patent US10987350B2, “Method for treating post-traumatic stress disorder” (priority 2017, dated 2021).
# At least one read-out could not be matched to a standard name with certainty.
# Conditions: compared with naltrexone; cited from earlier work
smiles,measurement,value
C=C1CC[C@@]2(O)[C@H]3Cc4ccc(O)c5c4[C@@]2(CCN3CC2CC2)[C@H]1O5 [nalmefene],oral bioavailability relative to naltrexone,greater oral bioavailability
